# Residue numbers refer to the chain shown, from its start. Results are given in words; binding and its absence hold for the method and conditions named. Some results given as binding are weak or reduced against the parent protein; the word gives no strength.
# Sequences of proteins named here, by UniProt entry; tags and fusion partners are left off. Residues count along the entry.
# UniProt P01031, residues 19-1676: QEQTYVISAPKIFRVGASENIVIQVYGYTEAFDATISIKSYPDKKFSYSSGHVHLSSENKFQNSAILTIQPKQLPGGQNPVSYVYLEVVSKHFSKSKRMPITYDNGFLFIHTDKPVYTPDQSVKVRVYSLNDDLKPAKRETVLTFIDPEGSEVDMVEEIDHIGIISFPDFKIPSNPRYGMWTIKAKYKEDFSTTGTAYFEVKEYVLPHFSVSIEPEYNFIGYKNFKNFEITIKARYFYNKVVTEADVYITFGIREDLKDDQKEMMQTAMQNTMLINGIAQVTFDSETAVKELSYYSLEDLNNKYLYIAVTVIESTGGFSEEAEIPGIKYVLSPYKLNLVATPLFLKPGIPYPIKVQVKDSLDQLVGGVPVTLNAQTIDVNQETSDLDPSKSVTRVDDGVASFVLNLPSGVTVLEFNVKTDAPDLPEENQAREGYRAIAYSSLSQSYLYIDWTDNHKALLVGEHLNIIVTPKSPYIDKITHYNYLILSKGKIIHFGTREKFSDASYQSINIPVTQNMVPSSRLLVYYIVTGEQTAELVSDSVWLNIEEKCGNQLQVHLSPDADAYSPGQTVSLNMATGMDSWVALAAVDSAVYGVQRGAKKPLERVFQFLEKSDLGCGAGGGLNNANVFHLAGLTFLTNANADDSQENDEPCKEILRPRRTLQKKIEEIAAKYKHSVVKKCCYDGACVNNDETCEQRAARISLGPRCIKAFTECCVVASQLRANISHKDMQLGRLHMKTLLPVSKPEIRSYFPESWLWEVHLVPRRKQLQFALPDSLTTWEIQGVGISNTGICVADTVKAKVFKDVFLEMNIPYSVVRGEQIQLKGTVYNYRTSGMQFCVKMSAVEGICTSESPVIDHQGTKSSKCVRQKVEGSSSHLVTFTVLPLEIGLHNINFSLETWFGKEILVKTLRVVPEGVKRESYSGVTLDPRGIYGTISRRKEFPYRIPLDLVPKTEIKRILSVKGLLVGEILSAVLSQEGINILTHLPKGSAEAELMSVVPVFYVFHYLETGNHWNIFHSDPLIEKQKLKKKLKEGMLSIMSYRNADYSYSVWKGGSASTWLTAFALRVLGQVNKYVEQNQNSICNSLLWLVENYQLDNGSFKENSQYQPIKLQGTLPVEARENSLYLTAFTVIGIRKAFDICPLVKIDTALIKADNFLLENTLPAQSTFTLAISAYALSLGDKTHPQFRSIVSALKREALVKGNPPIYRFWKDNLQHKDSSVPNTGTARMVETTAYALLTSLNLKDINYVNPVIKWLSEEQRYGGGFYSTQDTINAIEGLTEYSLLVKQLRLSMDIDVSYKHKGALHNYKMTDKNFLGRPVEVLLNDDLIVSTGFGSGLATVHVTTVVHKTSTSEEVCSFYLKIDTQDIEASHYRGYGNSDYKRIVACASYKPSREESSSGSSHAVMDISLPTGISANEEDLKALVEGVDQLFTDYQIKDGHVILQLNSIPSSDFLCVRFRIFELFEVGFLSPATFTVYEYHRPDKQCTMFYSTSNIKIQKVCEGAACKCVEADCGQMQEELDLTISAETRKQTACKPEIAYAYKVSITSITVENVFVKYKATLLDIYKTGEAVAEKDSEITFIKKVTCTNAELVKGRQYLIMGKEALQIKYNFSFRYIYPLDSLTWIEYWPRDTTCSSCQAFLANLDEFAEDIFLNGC
# B1: LCP0319 (VHH, not shown: small tags and cut ends)
# VHH: EVQLVESGGGLVQAGGSLRLSCAAAGRSLSDYYIIWFRQPPGKEYEFVSSIRWNTGSTTYGDSVKGRFTISRDNAKSTVYLQMNSLKPEDTALYWCAAGLHLTPTSRTYNYRGQGTQVTVSS
# B2: LCP0320 (VHH, not shown: small tags and cut ends)
# VHH: EVQLVESGGGLVQAGGSLRLSCAAPETIFTINSMGWYRQAPGKQRELVAFINLDGNTNYADSAKGRFTISRDNAENTVYLQMDNLKPDDTAVYYCNVLLSRAISGSYVHWGQGTQVTVSS
# B3: LCP0091 (VHH, not shown: small tags and cut ends)
# VHH: EVQLVESGGGLVQAGGSLTLSCAASGRTDSRYAMGWFRQAPGKERELMAAISWSGRPTYYADSVKGRFTISRDNAKNTVSLQMNSLKPEDTAVYYCAYKRLPAWYTGSAYYSQESEYDYWGQGTQVTVSS
# B4: LCP0092 (VHH, not shown: small tags and cut ends)
# VHH: EVQLVESGGGLVQPGGSLRLSCTSRIGTISNIDLMNWYRQAPGKQREFVASLQSTGTTDYADSVKGRFTISRDNAKNTLFLQMNSLNPEDTAVYYCHALIPRSPYNVWGQGTQVTVSS
# B5: LCP0082 (VHH, not shown: small tags and cut ends)
# VHH: EVQLVESGGGLVQAGGSLRLSCAASGTSVVINSMGWYRQAPGKQRELVATIDLSGTTNYADSAQGRFTISRDNAENLNLVYLQMNNLNPDDTAVYYCNALLSRAVSGSYVYWGQGTQVTVSS
# B6: LCP0097 (VHH, not shown: small tags and cut ends)
# VHH: EVQLVESGGGLVQPGGSLRLSCAASESISSDSPMAWYRQAPGKQREMVARILPIGPPDYADAVKDRFSISRENAKNTVYLQMNSLKPEDTAVYYCNLLHLPSGLNYWGQGTQVTVSS
# B7: LCP0101 (VHH, not shown: small tags and cut ends)
# VHH: B4 VHH with I100L, V107A
# B8: LCP0102 (VHH, not shown: small tags and cut ends)
# VHH: EVQLVESGGGLVQAGGSLRLSCAASGIIPNIYAMGWYRQAPGKQRELVASIENGGSTNYADSVKGRFTISRDNARNTVFLQMHSLKSEDTAVYYCYAFRPGVPTDWGQGTQVTVSS
# B9: LCP0103 (VHH, not shown: small tags and cut ends)
# VHH: EVQLVESGGGLVQAGGSLTLSCVASGRTFSNYRMGWFRQAPGAEREFVGTIYWSTGRSYYGDSVKGRFIISGDNAKNTIHLQMNSLKPEDTGVYYCASGPENSAFDSWGQGTQVTVSS
# B10: LCP0105 (VHH, not shown: small tags and cut ends)
# VHH: EVQLVESGGGLVQAGGSLRLSCTASGRTISTTVMAWFRQAPGKEREFVAAVHWGDESTVYADSVKGRFTISRDNAKNTVYLQMNYLKPEDTSVYYCAARPPTYVGSSRSSRAYDYWGQGTQVTVSS
# B11: LCP0106 (VHH, not shown: small tags and cut ends)
# VHH: EVQLVESGGGLVQAGGSLRLSCVVSGSILDINVMAWYRQAPGKQREFVARITSGGDIDYADPVKGRFTISTNGAKNTVYLQMNSLKPEDTAAYYCNVLLSRSSAGRYTHWGQGTQVTVSS
# B12: LCP0114 (VHH, not shown: small tags and cut ends)
# VHH: B4 VHH with K65R, I100L
# B13: LCP0083 (VHH, not shown: small tags and cut ends)
# VHH: B4 VHH with T55N, T57A, D59N, Y95F, I100L, V107S
# B14: LCP0122 (VHH, not shown: small tags and cut ends)
# VHH: EVQLVESGGGLVQAGGSLRLSCAAPETGATINVMAWYRQAPGKQRELVARVAIDNNTDYADHAKGRFTISRDNTKNTVYLQMNNLKPDDTAVYYCNVLLSRQISGSYGHWGQGTQVTVSS
# B15: LCP0125 (VHH, not shown: small tags and cut ends)
# VHH: B10 VHH with A35G, S57G, Y85A, R99K, S106T, D114V
# B16: LCP0126 (VHH, not shown: small tags and cut ends)
# VHH: EVQLVESGGGLVQAGDSLTLSCAASGSGFSINVMAWYRQAPGKQRDLVASMTIGGRTNYKDSLKGRFTISRDNTKNTAYLQMNSLKPEDTAVYYCYALLDRGIGGNYVYWGQGTQVTVSS
# B17: LCP0127 (VHH, not shown: small tags and cut ends)
# VHH: EVQLVESGGGLVQAGGSLRLSCAASGLTFSDYYMGWFRQAPGKERDFLARIGKSGIGKSYADSVRGRFTISRDNAKNTVYLQMNNLKLEDTAVYYCAADRDIAYDARLTAEYDYWGQGTQVTVSS
# B18: LCP0129 (VHH, not shown: small tags and cut ends)
# VHH: EVQLVESGGGLVQAGGSLRLSCAASVASETIVSINDMAWYRQAPGKQRELVASITIHNNRDYADSAKGRFTISRDDTKNTVYLQMTHLKPDDTAVYYCTVLLSRALSGSYRFWGQGTQVTVSS
# B19: LCP0133 (VHH, not shown: small tags and cut ends)
# VHH: EVQLVESGGGSVQAGGSLRLSCAFSGGRFSDYGMAWFRQGPGKEREFVSRISGNGRGTQYTDSVSGRFIISRDNDKNTVYLQMNDLKVEDTAIYYCARGSGPSSFNEGSVYDYWGQGTQVTVSS
# B20: LCP0134 (VHH, not shown: small tags and cut ends)
# VHH: EVQLVESGGGLVQSGGSLTLSCVLSGSIFSSNTMGWHRQAPGKQREWVAITTSGGTTKYADSVKGRFTISRDNAKNTVYLRMNNLKPEDTGVYFCYASLAGIWGQGTQVTVSS
# B21: LCP0085 (VHH, not shown: small tags and cut ends)
# VHH: B8 VHH with G26S, G55L, S56P, T57A, R75K, D105T
# B22: LCP0135 (VHH, not shown: small tags and cut ends)
# VHH: EVQLVESGGGLVQAGGSLRLSCAAPETEATYNVMGWYRRAPGKQRELVATMTIDYNTNYADSAKGRFTISRDNTKNTVYLQMNNLRPDDTAVYYCRVDLSRQISGSYNYWGQGTQVTVSS
# Molecular target: cynomolgus monkey (cyno) complement protein C5 (cynomolgus monkey)
# Assay: BLI, VHH-His on anti-penta-His tips, 50 nM C5
row,Binder,binding
1,B1,binds
2,B2,binds
3,B3,binds
4,B4,binds
5,B5,binds
6,B6,binds
7,B7,binds
8,B8,binds
9,B9,binds
10,B10,binds
11,B11,binds
12,B12,binds
13,B13,binds
14,B14,binds
15,B15,binds
16,B16,binds
17,B17,binds
18,B18,binds
19,B19,binds
20,B20,binds
21,B21,binds
22,B22,binds

# Molecular target: T1, human complement protein C5 (human, UniProt P01031 19-1676)
# T1 construct: Native C5 is a two-chain protein made from one precursor; also called hC5; human C5
# Assay: BLI, VHH-His on anti-penta-His tips, 50 nM C5
row,Binder,binding
1,B1,binds
2,B2,binds
3,B3,binds
4,B4,binds
5,B5,binds
6,B6,binds
7,B7,binds
8,B8,binds
9,B9,binds
10,B10,binds
11,B11,binds
12,B12,binds
13,B13,binds
14,B14,binds
15,B15,binds
16,B16,binds
17,B17,binds
18,B18,binds
19,B19,binds
20,B20,binds
21,B21,binds
22,B22,binds

# From patent US20250163138A1 (Alexion, published 2025)
